Measurements as given in paper PMC4441487.
No constants are given. Whether binding was seen depends on the method and setting. In cells and extracts the contact can be indirect. Some binding calls cover weakened binding; strength is not graded here.

Chains of the proteins cited; added tags and fusions are not shown. Lines headed by an entry give the natural chain unless they say otherwise; changes in a name come on top. Residues count along the entry.
UniProt Q00987: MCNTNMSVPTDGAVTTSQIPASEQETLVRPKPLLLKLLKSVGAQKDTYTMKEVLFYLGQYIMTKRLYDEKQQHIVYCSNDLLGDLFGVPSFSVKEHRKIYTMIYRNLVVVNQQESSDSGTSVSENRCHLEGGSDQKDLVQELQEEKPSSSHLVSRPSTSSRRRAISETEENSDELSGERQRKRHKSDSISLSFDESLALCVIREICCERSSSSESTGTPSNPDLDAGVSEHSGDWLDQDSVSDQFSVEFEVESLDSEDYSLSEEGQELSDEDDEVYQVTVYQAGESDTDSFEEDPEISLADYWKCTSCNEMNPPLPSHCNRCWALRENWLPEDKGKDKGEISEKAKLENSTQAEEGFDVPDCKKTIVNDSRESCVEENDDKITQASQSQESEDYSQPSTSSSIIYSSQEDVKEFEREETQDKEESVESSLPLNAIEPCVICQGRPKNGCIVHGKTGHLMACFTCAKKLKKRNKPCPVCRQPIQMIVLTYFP
GST-MP1 (MDM2 mini-protein, amino acids 1–110): residues 1-110 of Q00987
GST-MP2 (MDM2 mini-protein, amino acids 108–207): residues 108-207 of Q00987
GST-MP3 (MDM2 mini-protein, amino acids 203–282): residues 203-282 of Q00987
GST-MP4 (MDM2 mini-protein, amino acids 279–491): residues 279-491 of Q00987
UniProt P43356: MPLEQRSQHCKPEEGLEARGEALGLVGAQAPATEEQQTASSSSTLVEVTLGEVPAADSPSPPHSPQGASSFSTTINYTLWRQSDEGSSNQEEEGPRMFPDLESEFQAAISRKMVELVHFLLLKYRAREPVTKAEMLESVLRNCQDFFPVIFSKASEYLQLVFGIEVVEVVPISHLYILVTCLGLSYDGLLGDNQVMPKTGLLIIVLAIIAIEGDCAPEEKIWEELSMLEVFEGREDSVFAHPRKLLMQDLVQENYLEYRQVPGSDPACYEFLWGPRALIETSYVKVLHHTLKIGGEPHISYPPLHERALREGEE

Assays:
[1] = molecular target: GFP-MP1 (MDM2 amino acids 1–110 fused to green fluorescent protein) (human) (UniProt Q00987); assay: co-IP; H1299 cells transfected with GFP-MP1 or GFP alone together with MAGE-A2 or p53
[2] = molecular target: MDM2 peptide 291–305 (biotinylated) (human) (UniProt Q00987); assay: pull-down; pepscan: 10 μg of biotinylated 15-mer MDM2 peptide on streptavidin-agarose beads, ^35S-labelled in vitro translated MAGE-A2 added for 2 hours at 4°C, washed in PBS/0.1% Tween-20; SDS-PAGE and fluorography; only the target purified
[3] = molecular target: MDM2 peptide 151–165 (biotinylated) (human) (UniProt Q00987); assay: as above
[4] = molecular target: MDM2 peptide 171–185 (biotinylated) (human) (UniProt Q00987); assay: as above
[5] = molecular target: MDM2 peptide 461–475 (biotinylated) (human) (UniProt Q00987); assay: as above
[6] = molecular target: MDM2 peptide 311–325 (biotinylated) (human) (UniProt Q00987); assay: as above
[7] = molecular target: MDM2 peptide 451–465 (biotinylated) (human) (UniProt Q00987); assay: as above
[8] = molecular target: MDM2 peptide 191–205 (biotinylated) (human) (UniProt Q00987); assay: as above
[9] = molecular target: MDM2 peptide 51–65 (biotinylated) (human) (UniProt Q00987); assay: as above
[10] = molecular target: MDM2 peptide 481–491 (biotinylated, C-terminal peptide) (human) (UniProt Q00987); assay: as above
[11] = molecular target: MDM2 peptide 91–105 (biotinylated) (human) (UniProt Q00987); assay: as above
[12] = molecular target: GST-MP1 (MDM2 mini-protein, amino acids 1–110) (human) (UniProt Q00987); assay: pull-down; GST-MP1 on glutathione sepharose 4B beads, ^35S-radiolabelled MAGE-A2 or p53, in the presence of increasing concentrations of Nutlin-3a; fluorography and densitometry; only the target purified
[13] = molecular target: GST-MP1 (MDM2 mini-protein, amino acids 1–110) (human) (UniProt Q00987); assay: pull-down; GST-MDM2 fusion proteins or GST alone on Glutathione Sepharose 4B beads, incubated with ^35S-labelled in vitro translated MAGE-A2; SDS-PAGE and fluorography; only the target purified
[14] = molecular target: GST-MP3 (MDM2 mini-protein, amino acids 203–282) (human) (UniProt Q00987); assay: as above
[15] = molecular target: GST-full length human MDM2 (human) (UniProt Q00987); assay: as above
[16] = molecular target: GST-MP4 (MDM2 mini-protein, amino acids 279–491) (human) (UniProt Q00987); assay: as above
[17] = molecular target: GST-MP2 (MDM2 mini-protein, amino acids 108–207) (human) (UniProt Q00987); assay: as above

| binding [1] | binding [2] | binding [3] | binding [4] | binding [5] | binding [6] | binding [7] | binding [8] | binding [9] | binding [10] | binding [11] | binding [12] | binding [13] | binding [14] | binding [15] | binding [16] | binding [17] | Substance |
| --- | --- | --- | --- | --- | --- | --- | --- | --- | --- | --- | --- | --- | --- | --- | --- | --- | --- |
| binds |  |  |  |  |  |  |  |  |  |  |  |  |  |  |  |  | HA-tagged MAGE-A2 (expressed in H1299 cells) (from UniProt P43356 1-314) |
|  | binds weakly | binds weakly | binds weakly | binds | binds weakly | binds | binds weakly | binds | binds | binds | binds | binds | binds weakly | binds | binds | binds weakly | ^35S-labelled in vitro-translated MAGE-A2 (from UniProt P43356 1-314) |
